Laboratory results reported in patent US20040043904A1, “N-(4-pyrazolyl) amide derivatives, chemicals for agricultural and horticultural use, and usage of the same” (priority 2003, published 2004).
Some entries share one result that the patent states for a list of compounds. For some assays here: At least one compound was matched to its structure with a doubt left. Some compounds share one range, which may span the group rather than tell each member.

Assays:
Format in all cases: in vivo
[1] = tested on: apple scab (Venturia inaequalis); test: Control effect on apple scab (Test Example 1); conditions: potted apple seedling (cultivar: Ohrin), stalks and leaves sprayed with test solution of prescribed concentration, inoculated after one day, judged two weeks after inoculation
[2] = tested on: Chinese cabbage black spot (Alternaria brassicae); test: Controlling effect on Chinese cabbage black spot (Test Example 3); conditions: potted Chinese cabbage at the 1.5 leaf stage (cultivar: Muso), sprayed with test solution of prescribed concentration, inoculated after one day, judged seven days after inoculation
[3] = tested on: green peach aphid (Myzus persicae); test: Insecticidal effect on green peach aphid (Test Example 7); conditions: 500 ppm, stems and leaves of Chinese cabbage sprayed, parasites counted six days after spraying
Text: Insecticidal Effect on Green Peach Aphid (Myzus persicae)
A Chinese cabbage plant was planted in each of plastic pots with a diameter of 8 cm and a height of 8 cm, and green peach aphids were propagated on the plant. The number of parasites of each pot was counted.
Then, the stems and leaves were sufficiently sprayed with the test solution. After air-drying, the pots were allowed to stand in a greenhouse.
Control efficacy (%)=100[(T×Ca)/(Ta×C)]×100
Ta: number of parasites before spraying in treated group,
T : number of parasites after spraying in treated group,
Ca: number of parasites before spraying in untreated group,
[…]: number of parasites after spraying in untreated group.

[4] = tested on: diamond back moth (Plutella xylostella); test: Insecticidal effect on diamond back moth (Test Example 6); conditions: 500 ppm, Chinese cabbage seedling with eggs immersed about 30 seconds, 25° C., hatched insects counted six days after immersion
[5] = tested on: tomato late blight (Phytophthora infestans); conditions: potted tomato at the 3 leaf stage (cultivar: Ponterosa), sprayed with test solution of prescribed concentration, inoculated after one day, judged five days after inoculation
[6] = tested on: brown rice planthopper (Nilaparvata lugens); test: Insecticidal effect on brown rice planthopper (Test Example 8); conditions: 500 ppm, rice seedlings (variety: Nihombare) dipped 30 seconds, ten 3rd instar nymphs, counted eight days after treatment

Compound | insecticidal effect (mortality) [4] | insecticidal effect (insect death rate) [6] | also measured
Cc1nn(C)c(Cl)c1NC(=O)Cc1cccc(F)c1 [Compound A-3] |  |  | controlling effect (control efficacy, lesion area compared with untreated plot) [1]: A (control efficacy 100 to 90%)
CCCCc1ccc(CC(=O)Nc2c(C)nn(C)c2Cl)cc1 [Compound A-8] |  |  | controlling effect (control efficacy, lesion area compared with untreated plot) [1]: A (control efficacy 100 to 90%); controlling effect (control efficacy, lesion area compared with untreated plot) [2]: A (control efficacy 100 to 90%); insecticidal effect (control efficacy) [3]: A (Mortality 100%)
Cc1nn(C)c(Cl)c1NC(=O)Cc1ccc(Cl)cc1Cl [Compound A-23] | A (Mortality 100%) |  | controlling effect (control efficacy, lesion area compared with untreated plot) [1]: A (control efficacy 100 to 90%)
Cc1nn(C)c(Cl)c1NC(=O)Cc1c(Cl)cccc1Cl [Compound A-24] |  |  | controlling effect (control efficacy, lesion area compared with untreated plot) [1]: A (control efficacy 100 to 90%)
Cc1nn(C)c(Cl)c1NC(=O)Cc1ccc(Cl)c(Cl)c1 [Compound A-25] | A (Mortality 100%) |  | controlling effect (control efficacy, lesion area compared with untreated plot) [1]: A (control efficacy 100 to 90%)
CCCCCCOc1ccc(CC(=O)Nc2c(C)nn(C)c2Cl)cc1OC [Compound A-35] | A (Mortality 100%) |  | controlling effect (control efficacy, lesion area compared with untreated plot) [1]: A (control efficacy 100 to 90%); controlling effect (control efficacy, lesion area compared with untreated plot) [2]: A (control efficacy 100 to 90%); insecticidal effect (control efficacy) [3]: A (Mortality 100%)
CCCCCCOc1ccc(CC(=O)Nc2c(C)nn(C)c2Cl)cc1 [Compound A-43] |  |  | controlling effect (control efficacy, lesion area compared with untreated plot) [1]: A (control efficacy 100 to 90%); controlling effect (control efficacy, lesion area compared with untreated plot) [2]: A (control efficacy 100 to 90%)
CCn1ncc(NC(=O)Cc2ccc3c(c2)OC(C)(c2ccccc2)O3)c1Cl (centres unmarked) [Compound A-56] |  |  | controlling effect (control efficacy, lesion area compared with untreated plot) [1]: A (control efficacy 100 to 90%); insecticidal effect (control efficacy) [3]: A (Mortality 100%)
Cc1nn(C)c(Cl)c1NC(=O)Cc1ccc(OCc2ccccc2Cl)cc1 [Compound B-36] |  |  | controlling effect (control efficacy, lesion area compared with untreated plot) [5]: A (control efficacy 100 to 90%)
CSc1c(NC(=O)Cc2ccc(Oc3ccc(C#N)cc3)cc2)c(C)nn1OC(F)F [Compound B-57] |  |  | controlling effect (control efficacy, lesion area compared with untreated plot) [5]: A (control efficacy 100 to 90%)
COc1cc(CC(=O)Nc2cnn(C)c2Cl)ccc1Oc1ccc(C#N)cc1 [Compound B-62] | A (Mortality 100%) | A (Mortality 100%) | 
Cn1ncc(NC(=O)Cc2ccc(Oc3ccc(C(F)(F)F)cn3)cc2)c1Cl [Compound B-63] | A (Mortality 100%) | A (Mortality 100%) | 
Cn1ncc(NC(=O)Cc2ccc(-c3ccc(C(F)(F)F)cc3)cc2)c1Cl [Compound B-65, 5-chloro-4-(4-(4-trifluoromethylphenyl)phenylacetoamino)-1-methylpyrazole] |  |  | controlling effect (control efficacy, lesion area compared with untreated plot) [1]: A (control efficacy 100 to 90%)
Cc1ccccc1-c1ccc(CC(=O)Nc2cnn(C)c2Cl)cc1 [Compound B-67] | A (Mortality 100%) | A (Mortality 100%) | 
Cc1nn(C)c(Cl)c1NC(=O)Cc1ccc(Oc2ccc(C(N)=NO)cc2)cc1 [Compound B-78] | A (Mortality 100%) | A (Mortality 100%) | 
Cn1ncc(NC(=O)Cc2ccc(Oc3ccc(C(F)(F)F)cc3)cc2)c1Cl [Compound B-84] | A (Mortality 100%) | A (Mortality 100%) | 
Cc1nn(C)c(Cl)c1NC(=O)Cc1ccc(Oc2ccc(C#N)cc2)c([N+](=O)[O-])c1 [Compound B-90] | A (Mortality 100%) | A (Mortality 100%) | 
Cn1ncc(NC(=O)Cc2ccc(Oc3ccc(F)cc3)cc2)c1Cl [Compound B-93] | A (Mortality 100%) | A (Mortality 100%) | 
Cc1nn(C)c(Cl)c1NC(=O)Cc1ccc(Cc2ccccc2)cc1 [Compound B-98] | A (Mortality 100%) | A (Mortality 100%) | 
Cn1ncc(NC(=O)Cc2ccc(Oc3ccc(Br)cc3)cc2)c1Cl [Compound B-99] | A (Mortality 100%) | A (Mortality 100%) | 
CCn1ncc(NC(=O)Cc2ccc(Oc3ccc(C#N)cc3)cc2)c1Cl [Compound B-102] | A (Mortality 100%) | A (Mortality 100%) | 
CCn1nc(C)c(NC(=O)Cc2ccc(Oc3ccc(Cl)cc3)cc2)c1Cl [Compound B-113] | A (Mortality 100%) | A (Mortality 100%) | 

Compound | insecticidal effect (mortality) [4] | insecticidal effect (insect death rate) [6] | also measured
Cn1ncc(NC(=O)Cc2ccc(Oc3ccc(F)cc3)c(F)c2)c1Cl [Compound B-118] | A (Mortality 100%) | A (Mortality 100%) | 
CC(C)Oc1cc(CC(=O)Nc2cnn(C)c2Cl)ccc1Oc1ccc(F)cc1 [Compound B-119] | A (Mortality 100%) | A (Mortality 100%) | 
Cc1nn(C)c(Cl)c1NC(=O)Cc1ccc(Oc2ccc(Br)cc2)cc1 [Compound B-121] | A (Mortality 100%) | A (Mortality 100%) | 
CCN(C(=O)Cc1ccc(Oc2ccc(C#N)cc2)c(OC)c1)c1cnn(C)c1Cl [Compound B-124] | A (Mortality 100%) | A (Mortality 100%) | 
CCCn1nc2ccc(CC(=O)Nc3cnn(CC)c3Cl)cc2n1 [Compound C-2] | A (Mortality 100%) |  | controlling effect (control efficacy, lesion area compared with untreated plot) [2]: A (control efficacy 100 to 90%)
Cn1ncc(NC(=O)Cc2ccc(Oc3ccc(C(F)(F)F)cn3)c(Cl)c2)c1Cl [Compound D-45] | A (Mortality 100%) | A (Mortality 100%) | 
Cn1ncc(NC(=O)Cc2ccc(Oc3ccc(C(F)(F)F)cn3)c(F)c2)c1Cl [Compound D-46] | A (Mortality 100%) | A (Mortality 100%) | 
CCn1ncc(NC(=O)Cc2ccc(Oc3ccc(Cl)cn3)c(OC)c2)c1Cl [Compound D-48] | A (Mortality 100%) | A (Mortality 100%) | 
CCn1ncc(NC(=O)Cc2ccc(Oc3ccc(Cl)nn3)cc2)c1Cl [Compound D-55] | A (Mortality 100%) | A (Mortality 100%) | 
COc1cc(CC(=O)Nc2cnn(C)c2Cl)ccc1Oc1ccc(Cl)nn1 [Compound D-57] | A (Mortality 100%) | A (Mortality 100%) | 
CCn1ncc(N(C)C(=O)Cc2ccc(Oc3ccc(C(F)(F)F)cn3)c(OC)c2)c1Cl [Compound D-68] | A (Mortality 100%) | A (Mortality 100%) | 
C=CCN(C(=O)Cc1ccc(Oc2ccc(C(F)(F)F)cn2)c(OC)c1)c1cnn(CC)c1Cl [Compound D-69] | A (Mortality 100%) | A (Mortality 100%) | 
CCn1ncc(NC(=O)Cc2ccc(Oc3ccc(C(F)(F)F)cn3)c(OC(F)F)c2)c1Cl [Compound D-86, 5-chloro-4-(3-difluoromethoxy-4-(5-trifluoromethylpyridine-2-yloxy)phenylacety-lamino)-1-ethylpyrazole] | A (Mortality 100%) | A (Mortality 100%) | 
C#CCN(C(=O)Cc1ccc(Oc2ccc(C(F)(F)F)cn2)c(OC)c1)c1cnn(CC)c1Cl [Compound D-89] | A (Mortality 100%) | A (Mortality 100%) | 
CCOCN(C(=O)Cc1ccc(Oc2ccc(Cl)cn2)c(OC)c1)c1cnn(CC)c1Cl [Compound D-91] | A (Mortality 100%) | A (Mortality 100%) | 
CCn1ncc(N(C(C)=O)C(=O)Cc2ccc(Oc3ccc(C(F)(F)F)cn3)c(OC)c2)c1Cl [Compound D-99] | A (Mortality 100%) | A (Mortality 100%) | 
CCC(=O)N(C(=O)Cc1ccc(Oc2ccc(C(F)(F)F)cn2)c(OC)c1)c1cnn(CC)c1Cl [Compound D-100] | A (Mortality 100%) | A (Mortality 100%) | 
CCCC(=O)N(C(=O)Cc1ccc(Oc2ccc(C(F)(F)F)cn2)c(OC)c1)c1cnn(CC)c1Cl [Compound D-101] |  | A (Mortality 100%) | 
CCn1ncc(N(C(=O)Cc2ccc(Oc3ccc(C(F)(F)F)cn3)c(OC)c2)C(=O)OC)c1Cl [Compound D-108] |  | A (Mortality 100%) | 
CCn1ncc(NC(=O)C(=O)c2ccc(Oc3ccc(C(F)(F)F)cn3)c(OC)c2)c1Cl [Compound D-126] |  | A (Mortality 100%) | 
CCOC(C)OC(C(=O)Nc1cnn(CC)c1Cl)c1ccc(Oc2ccc(C(F)(F)F)cn2)c(OC)c1 [Compound D-184] |  | A (Mortality 100%) | 
